The campaign covered roughly 390,000 compounds. About 4,000 (1%) were called active. This list was built around the results that the source calls inconclusive (neither active nor inactive); the mix of calls is not that of the screen. Calls come from the whole dose curve; as a rule, active = well fitted inhibition curve with a large enough effect; inconclusive = small, poorly fitted or top-dose-only effect, or another doubt; inactive = no such curve, though single readings can be large or run the other way. Potencies beside an inconclusive call are fits to weak or partial responses and may not hold up.
What follows are compounds tested against DNA polymerase iota (Homo sapiens) (UniProt Q9UNA4) (assay: qHTS for Inhibitors of Polymerase Iota). Conditions: Pol iota fluorescent replication assay, 10 min; series mostly up to 115 µM; activity, negative = inhibition: at the top concentration.
Procedure, shortened: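 Pol iota at 10 nM preincubated 15 min with compounds at room temperature; reaction started with fluorescent substrate, 50 nM final. Fluorescence read kinetically at 0 and 10 min; buffer-only wells as negative control.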
Potency is the fitted concentration of half-maximal effect.

The chains behind the UniProt entries cited, without tags or fusion partners. Where a name states a change or a piece, a line headed by the entry shows the natural chain unless it says otherwise.
UniProt Q9UNA4: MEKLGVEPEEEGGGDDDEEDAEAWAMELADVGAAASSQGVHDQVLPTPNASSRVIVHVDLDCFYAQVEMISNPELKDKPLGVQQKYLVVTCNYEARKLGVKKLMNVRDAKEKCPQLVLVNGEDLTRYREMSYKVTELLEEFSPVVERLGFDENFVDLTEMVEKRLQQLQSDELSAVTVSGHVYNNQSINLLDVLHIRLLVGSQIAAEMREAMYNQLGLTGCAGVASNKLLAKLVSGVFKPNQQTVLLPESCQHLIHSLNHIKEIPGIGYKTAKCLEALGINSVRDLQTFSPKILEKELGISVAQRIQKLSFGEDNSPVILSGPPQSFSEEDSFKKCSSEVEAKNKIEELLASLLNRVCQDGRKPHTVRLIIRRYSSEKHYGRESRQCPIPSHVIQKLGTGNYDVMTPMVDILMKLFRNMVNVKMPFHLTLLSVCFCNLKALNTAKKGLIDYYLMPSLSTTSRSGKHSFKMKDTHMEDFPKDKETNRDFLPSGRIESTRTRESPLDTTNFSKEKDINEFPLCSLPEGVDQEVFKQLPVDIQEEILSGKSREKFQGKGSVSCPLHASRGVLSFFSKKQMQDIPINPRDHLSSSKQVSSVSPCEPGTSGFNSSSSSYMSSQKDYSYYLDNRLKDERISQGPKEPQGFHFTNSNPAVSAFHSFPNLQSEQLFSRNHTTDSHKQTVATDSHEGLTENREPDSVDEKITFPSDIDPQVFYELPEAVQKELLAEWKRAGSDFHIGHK

SMILES	Potency	activity, negative = inhibition
CCN(c1ccc(C)cc1C)S(=O)(=O)c1nnc(NC(=O)c2ccc(F)cc2)s1	inconclusive: 89.1 µM [inhibitor, single point]	
Cc1ccc(NC(=O)C2CCCN2S(=O)(=O)c2ccc3c(c2)n(C)c(=O)c(=O)n3C)cc1 (stereo not drawn)	inconclusive: 100 µM [inhibitor, single point]	
COc1ccc(OC)c(NC(=O)CN(c2ccccc2OC)S(=O)(=O)c2ccc(C)cc2)c1		inactive: 6.92%
CCOc1cc(C2NC(=O)NC(C)=C2C(=O)OC(C)CC)cc(Br)c1O (stereo not drawn)	inconclusive: 8.91 µM [inhibitor, full curve, poor fit]	
Cc1ccc(N2C(=O)N(CC(=O)Nc3cc(C)cc(C)c3)C(=O)C2C)cc1 (stereo not drawn)	inconclusive: 25.1 µM [inhibitor, single point]	
COC(=O)/C(C#N)=C(/Nc1ccc(F)c(Cl)c1)C(F)(F)F		inactive: -7.23%
Cc1ccc(N(C)S(=O)(=O)c2ccc3[nH]cc(C(=O)O)c(=O)c3c2)cc1C	inconclusive: 89.1 µM [inhibitor, single point]	
Cc1cc(NC(=O)CSc2ncnc3sccc23)no1		inactive: -0.057%
COc1ccc2ccccc2c1C(=O)/C=C\c1ccoc1	inconclusive: 15.8 µM [inhibitor, full curve, poor fit]	
Cc1nn(CCCC(=O)NCc2ccccc2)c(C)c1[N+](=O)[O-]		inactive: 21.1%
Cc1cccc(C(=O)OCC(=O)NCC2CCCO2)c1O (stereo not drawn)	inconclusive: 79.4 µM [inhibitor, single point]	
COc1cc(/C=C2\SC(=S)N(Nc3ncc(C(F)(F)F)cc3Cl)C2=O)ccc1O	active: 14.1 µM	
NCC(O)C1CCCCCCC1 (stereo not drawn)	inconclusive: 1.12 µM [inhibitor, full curve, poor fit]	
CCOC(=O)c1[nH]c(CSc2nnc(-c3ccncc3)n2CCOC)c(C(=O)OCC)c1C	inconclusive: 22.4 µM [inhibitor, single point]	
CC(=O)c1c(C)n(-c2cccc(C)c2)c2ccc(OC(=O)COc3ccccc3)cc12		inactive: 24.5%
CC(C)c1ccc(N2C(=O)/C(=C/N(C)C)SC2=S)cc1	active: 7.94 µM	
CCOC(=O)c1c(C)c(C(=O)NCCc2ccc(OC)cc2)c(C)n1CC		inactive: 37.4%
Cc1ccccc1C(=O)Nc1nc2c(s1)CC(C(C)(C)C)CC2 (stereo not drawn)		inactive: 38.8%
Fc1ccc(C(c2nnnn2C2CCCC2)N(Cc2ccco2)CC2CCCO2)cc1 (stereo not drawn)	inconclusive: 28.2 µM [inhibitor, single point]	
CCc1ccc2[nH]c(=O)c(C3C(C#N)=C(N)Oc4c3ccc3cccnc43)cc2c1 (stereo not drawn)		inactive: 44.8%
COC(=O)C1(Cc2cc(-c3ccc(Cl)cc3)no2)CCN(C(=O)OC(C)(C)C)CC1	inconclusive: 2.51 µM [inhibitor, partial curve, poor fit]	
CN(Cc1ccccc1)C(=O)CCNS(=O)(=O)c1ccc2c(c1)oc(=O)n2C	inconclusive: 28.2 µM [inhibitor, full curve]	

One compound at a time (already shown).
NCC(O)C1CCCCCCC1 (stereo not drawn) in the list: Potency: inconclusive: 1.12 µM [inhibitor, full curve, poor fit]
Cc1ccc(N(C)S(=O)(=O)c2ccc3[nH]cc(C(=O)O)c(=O)c3c2)cc1C in the list: Potency: inconclusive: 89.1 µM [inhibitor, single point]
COc1ccc(OC)c(NC(=O)CN(c2ccccc2OC)S(=O)(=O)c2ccc(C)cc2)c1 in the list: activity, negative = inhibition: inactive: 6.92%

The list continues:

SMILES	Potency	activity, negative = inhibition
Cc1ccc(C(=O)NCCNS(=O)(=O)c2ccccc2[N+](=O)[O-])cc1		inactive: 56.5%
Cc1cccc2sc(N(Cc3cccnc3)C(=O)C3CCCCC3)nc12		inactive: -8.77%
Brc1ccc(C2Nc3cccc4cccc(c34)N2)s1	inconclusive: 10 µM [inhibitor, partial curve]	
O=C1[C@H]2[C@@H](c3ccc(Cl)cc3)N3C(=O)N(c4cccc(Br)c4)C(=O)[C@@]3(Cc3ccc(Cl)cc3)[C@H]2C(=O)N1C1CCCCC1	inconclusive: 22.4 µM [inhibitor, partial curve, poor fit]	
CCOC(=O)c1ccc(NC(=O)Cc2coc3cc(C)cc(C)c23)cc1	inconclusive: 100 µM [inhibitor, single point]	
O=S(=O)(c1ccc2oc(=S)[nH]c2c1)N1CCOCC1		inactive: 11.6%
COc1ccccc1C(=O)NC(=O)OCCn1c(C)cnc1[N+](=O)[O-]	inconclusive: 0.631 µM [inhibitor, full curve, poor fit]	
COc1ccc(NC(=O)Cn2nnc(C(=O)NCc3cccs3)c2N)cc1Cl	inconclusive: 56.2 µM [inhibitor, partial curve, poor fit]	
COc1ccccc1/C=N/NC(=O)c1cccc(NC(=O)c2ccccc2Cl)c1		inactive: 47.3%
COc1ccc(S(=O)(=O)NCc2cccn2Cc2cccc(C)c2)cc1OC		inactive: -3.68%
O=C(CCCCn1cnc2c(=S)nc[nH]c21)Nc1ccc(C(=O)O)c(O)c1	inconclusive: 25.1 µM [inhibitor, partial curve]	
O=C(CSc1ccc([N+](=O)[O-])cc1)Nc1cccc(S(=O)(=O)Nc2ccccc2F)c1	inconclusive: 15.8 µM [inhibitor, partial curve, poor fit]	
Cc1ccc(-n2ncc(C(=O)N3CCN(c4ccccn4)CC3)c2C2CCN(C(=O)OC(C)(C)C)CC2)cc1C	inconclusive: 31.6 µM [inhibitor, single point]	
Cc1cccc(CS(=O)(=O)CC2Nc3ccc(C(=O)NCc4ccccc4)cc3NC2=O)c1 (stereo not drawn)	inconclusive: 89.1 µM [inhibitor, single point]	
Cc1cc(C)nc(N/N=C/C2=C(N3CCOCC3)C(=C\c3ccc(Cl)cc3)/CC2)n1	inconclusive: 15.8 µM [inhibitor, full curve, poor fit]	
O=c1[nH]c(-c2ccccc2)cs1		inactive: 31.8%
COc1ccc(N2CCN(C(=O)Cn3cnc4sc(C)c(S(=O)(=O)N5CCC(C)CC5)c4c3=O)CC2)cc1		inactive: 10.6%
O=C(Nc1cccc(S(=O)(=O)N2CCOCC2)c1)C1CCCN(C(=O)c2ccc(Cl)cc2)C1 (stereo not drawn)	inconclusive: 39.8 µM [inhibitor, partial curve, poor fit]	
O=C1CS/C(=N\N=C\c2ccco2)N1c1ccccc1	inconclusive: 50.1 µM [inhibitor, partial curve, poor fit]	
COC(=O)c1c(N)sc2c1CC(C)(C)OC2	inconclusive: 89.1 µM [inhibitor, partial curve, poor fit]	
CCCOC(=O)c1c(N)sc2c1CCC2	inconclusive: 22.4 µM [inhibitor, single point]	
